Publication PMC3917433
Results are given in words; binding and its absence hold for the method and conditions named. Binding calls can cover weak binding; strength is not graded here.

The chains behind the UniProt entries cited, without tags or fusion partners. Where a name states a change or a piece, a line headed by the entry shows the natural chain unless it says otherwise.
UniProt Q96MS0: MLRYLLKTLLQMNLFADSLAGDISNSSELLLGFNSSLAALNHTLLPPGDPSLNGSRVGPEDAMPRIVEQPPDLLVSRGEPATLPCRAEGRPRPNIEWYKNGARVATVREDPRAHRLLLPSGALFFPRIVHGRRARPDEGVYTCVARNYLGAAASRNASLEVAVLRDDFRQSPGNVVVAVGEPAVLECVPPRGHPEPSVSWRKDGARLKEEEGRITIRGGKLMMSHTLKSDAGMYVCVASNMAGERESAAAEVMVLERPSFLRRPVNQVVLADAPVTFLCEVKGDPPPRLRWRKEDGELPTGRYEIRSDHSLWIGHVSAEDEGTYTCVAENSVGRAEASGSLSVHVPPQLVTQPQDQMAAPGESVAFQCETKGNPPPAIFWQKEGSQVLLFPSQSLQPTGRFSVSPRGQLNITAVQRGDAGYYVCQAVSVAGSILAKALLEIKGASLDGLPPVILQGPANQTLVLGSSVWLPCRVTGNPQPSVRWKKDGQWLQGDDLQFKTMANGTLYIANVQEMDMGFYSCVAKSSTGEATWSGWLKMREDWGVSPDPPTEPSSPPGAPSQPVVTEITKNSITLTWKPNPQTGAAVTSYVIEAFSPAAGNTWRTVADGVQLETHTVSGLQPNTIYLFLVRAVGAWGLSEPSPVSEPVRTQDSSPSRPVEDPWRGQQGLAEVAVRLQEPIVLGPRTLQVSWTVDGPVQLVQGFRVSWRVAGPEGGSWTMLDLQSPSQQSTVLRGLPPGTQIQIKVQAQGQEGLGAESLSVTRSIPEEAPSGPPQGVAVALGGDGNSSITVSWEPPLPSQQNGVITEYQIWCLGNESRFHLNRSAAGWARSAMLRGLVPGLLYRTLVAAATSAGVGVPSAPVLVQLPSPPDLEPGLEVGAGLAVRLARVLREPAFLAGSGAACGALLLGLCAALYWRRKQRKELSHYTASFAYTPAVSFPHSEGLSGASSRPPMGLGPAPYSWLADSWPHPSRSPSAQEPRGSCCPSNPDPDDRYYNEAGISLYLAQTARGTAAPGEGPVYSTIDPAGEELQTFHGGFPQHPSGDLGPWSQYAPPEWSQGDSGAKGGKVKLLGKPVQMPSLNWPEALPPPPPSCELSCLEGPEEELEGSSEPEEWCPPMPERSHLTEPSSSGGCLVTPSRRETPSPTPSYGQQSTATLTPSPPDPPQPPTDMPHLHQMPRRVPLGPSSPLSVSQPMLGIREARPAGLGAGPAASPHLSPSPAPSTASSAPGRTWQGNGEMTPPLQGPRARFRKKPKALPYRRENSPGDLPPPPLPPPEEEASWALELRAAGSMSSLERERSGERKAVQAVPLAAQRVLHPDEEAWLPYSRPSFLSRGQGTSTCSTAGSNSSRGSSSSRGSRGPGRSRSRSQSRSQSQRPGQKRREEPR
UniProt P21860: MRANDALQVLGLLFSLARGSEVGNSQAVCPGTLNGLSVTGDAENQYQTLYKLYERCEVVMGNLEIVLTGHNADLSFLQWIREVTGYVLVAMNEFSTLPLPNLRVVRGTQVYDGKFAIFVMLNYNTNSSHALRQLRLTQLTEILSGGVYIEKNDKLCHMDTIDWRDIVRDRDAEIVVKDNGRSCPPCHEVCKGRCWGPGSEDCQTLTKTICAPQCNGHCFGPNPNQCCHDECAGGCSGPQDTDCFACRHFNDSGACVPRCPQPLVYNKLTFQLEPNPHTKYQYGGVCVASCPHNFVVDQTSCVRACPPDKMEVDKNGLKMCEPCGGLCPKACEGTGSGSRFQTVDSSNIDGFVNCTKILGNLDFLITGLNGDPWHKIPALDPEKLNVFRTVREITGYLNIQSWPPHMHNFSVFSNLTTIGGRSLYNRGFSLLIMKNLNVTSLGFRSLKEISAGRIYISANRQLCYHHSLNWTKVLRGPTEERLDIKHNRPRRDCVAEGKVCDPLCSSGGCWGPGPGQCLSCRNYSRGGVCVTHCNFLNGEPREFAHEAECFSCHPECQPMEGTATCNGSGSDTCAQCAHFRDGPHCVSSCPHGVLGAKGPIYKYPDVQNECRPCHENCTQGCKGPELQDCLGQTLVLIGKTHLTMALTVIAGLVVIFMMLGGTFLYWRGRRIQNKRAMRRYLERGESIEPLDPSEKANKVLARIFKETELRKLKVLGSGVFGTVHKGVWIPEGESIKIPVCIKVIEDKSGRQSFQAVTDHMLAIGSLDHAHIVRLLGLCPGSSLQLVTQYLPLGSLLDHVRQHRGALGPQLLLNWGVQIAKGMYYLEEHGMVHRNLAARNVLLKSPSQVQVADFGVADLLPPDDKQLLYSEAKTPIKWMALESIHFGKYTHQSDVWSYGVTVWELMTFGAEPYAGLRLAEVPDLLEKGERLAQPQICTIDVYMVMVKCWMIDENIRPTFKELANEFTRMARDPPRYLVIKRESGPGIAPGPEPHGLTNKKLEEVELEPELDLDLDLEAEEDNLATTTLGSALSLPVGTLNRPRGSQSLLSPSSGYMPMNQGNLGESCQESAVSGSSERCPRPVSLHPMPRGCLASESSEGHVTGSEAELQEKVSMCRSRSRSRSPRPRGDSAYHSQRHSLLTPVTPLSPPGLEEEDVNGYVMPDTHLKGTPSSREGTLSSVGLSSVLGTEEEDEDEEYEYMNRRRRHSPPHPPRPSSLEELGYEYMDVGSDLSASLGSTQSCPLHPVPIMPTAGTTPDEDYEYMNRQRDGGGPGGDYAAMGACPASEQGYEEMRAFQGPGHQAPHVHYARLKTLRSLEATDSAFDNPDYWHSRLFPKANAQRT
UniProt P22607: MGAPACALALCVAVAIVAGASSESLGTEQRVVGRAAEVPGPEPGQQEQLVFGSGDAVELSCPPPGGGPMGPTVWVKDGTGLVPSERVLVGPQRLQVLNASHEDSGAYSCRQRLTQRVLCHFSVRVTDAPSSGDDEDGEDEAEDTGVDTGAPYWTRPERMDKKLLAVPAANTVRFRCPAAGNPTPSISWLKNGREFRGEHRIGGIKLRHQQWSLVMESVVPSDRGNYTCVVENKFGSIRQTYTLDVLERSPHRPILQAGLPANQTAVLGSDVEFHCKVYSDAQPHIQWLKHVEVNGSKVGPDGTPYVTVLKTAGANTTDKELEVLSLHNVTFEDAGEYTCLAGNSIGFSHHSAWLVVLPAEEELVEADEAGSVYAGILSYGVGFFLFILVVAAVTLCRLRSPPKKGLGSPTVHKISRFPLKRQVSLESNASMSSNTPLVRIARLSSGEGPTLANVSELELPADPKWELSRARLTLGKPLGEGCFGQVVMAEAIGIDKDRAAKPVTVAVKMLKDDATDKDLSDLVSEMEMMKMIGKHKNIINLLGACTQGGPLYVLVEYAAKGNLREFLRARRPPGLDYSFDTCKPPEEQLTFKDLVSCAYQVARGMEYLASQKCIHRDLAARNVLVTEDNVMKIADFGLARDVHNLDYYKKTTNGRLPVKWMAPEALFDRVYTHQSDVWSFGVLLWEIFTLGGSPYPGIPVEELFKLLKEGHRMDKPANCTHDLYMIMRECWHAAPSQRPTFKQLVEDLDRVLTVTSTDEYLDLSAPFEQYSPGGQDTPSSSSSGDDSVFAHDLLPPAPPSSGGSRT
UniProt P08253: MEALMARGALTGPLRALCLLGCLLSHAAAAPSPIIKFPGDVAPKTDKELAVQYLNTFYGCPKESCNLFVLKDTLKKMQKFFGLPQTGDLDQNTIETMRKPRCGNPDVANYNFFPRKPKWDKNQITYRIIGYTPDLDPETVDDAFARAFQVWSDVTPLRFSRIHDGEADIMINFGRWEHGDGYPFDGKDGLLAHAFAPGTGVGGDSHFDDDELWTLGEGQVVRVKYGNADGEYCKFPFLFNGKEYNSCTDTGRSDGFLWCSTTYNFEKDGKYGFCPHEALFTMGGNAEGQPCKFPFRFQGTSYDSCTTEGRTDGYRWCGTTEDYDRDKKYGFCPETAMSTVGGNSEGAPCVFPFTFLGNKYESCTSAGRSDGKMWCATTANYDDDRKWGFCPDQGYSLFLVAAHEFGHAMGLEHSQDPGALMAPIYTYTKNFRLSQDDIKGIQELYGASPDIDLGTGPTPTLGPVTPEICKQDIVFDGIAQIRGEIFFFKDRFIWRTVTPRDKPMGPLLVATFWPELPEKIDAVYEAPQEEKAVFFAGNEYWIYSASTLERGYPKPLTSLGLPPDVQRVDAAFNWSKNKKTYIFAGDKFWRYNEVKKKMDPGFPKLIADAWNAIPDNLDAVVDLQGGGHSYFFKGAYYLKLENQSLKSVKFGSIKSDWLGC
UniProt P13202: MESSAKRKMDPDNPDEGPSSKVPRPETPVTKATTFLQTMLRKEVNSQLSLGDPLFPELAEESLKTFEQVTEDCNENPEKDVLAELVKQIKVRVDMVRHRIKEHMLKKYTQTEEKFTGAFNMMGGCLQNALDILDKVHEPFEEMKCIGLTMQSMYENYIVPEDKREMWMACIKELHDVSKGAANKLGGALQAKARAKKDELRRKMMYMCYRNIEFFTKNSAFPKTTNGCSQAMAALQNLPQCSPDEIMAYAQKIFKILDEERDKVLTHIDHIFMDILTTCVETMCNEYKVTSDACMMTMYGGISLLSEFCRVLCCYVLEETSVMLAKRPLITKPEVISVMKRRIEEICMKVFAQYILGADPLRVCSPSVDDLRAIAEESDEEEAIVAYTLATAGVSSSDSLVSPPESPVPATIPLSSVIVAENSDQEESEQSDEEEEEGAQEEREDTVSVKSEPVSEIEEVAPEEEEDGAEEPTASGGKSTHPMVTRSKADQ

Columns and labels:
Experiment in all cases: peptide or protein array; only the binder purified
[1] = molecular target: Roundabout-like protein 3 (ROBO3) (human) (UniProt Q96MS0)
[2] = molecular target: V-erb-b2 erythroblastic leukemia viral oncogene homolog 3 (ERBB3) (human) (UniProt P21860)
[3] = molecular target: Fibroblast growth factor receptor 3 isoform 1 precursor (human) (UniProt P22607)
[4] = molecular target: matrix metallopeptidase 2 (MMP2) (human) (UniProt P08253)

Measured: binding

Human cytomegalovirus immediate-early protein 1 (from UniProt P13202 1-491)
binds: all assays above
